Values from PubChem BioAssay AID493246 (Drosophila RNAi Screening Center, 2011)

- Purpose: 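Identify essential fly genes by loss of cell viability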 (primary screen)
- Cells: Drosophila Kc and S2R+ cells
- Reagent: long dsRNA against Drosophila genes
- Read-out: 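Raw, unnormalised count of remaining cells in each well; per-plate z-scores of cell number underlie the calls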
- Scale: Kc cell number and S2R+ cell number: higher = more cells remaining
- Rule for the call: 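Counted as a hit if cell number falls by a z-score of at least 3 within its plate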
In all, the deposit lists about 21,000 reagents; this is a random part of those with a known target gene and a result. In the full data, 429 (2%) were called active. 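Values are raw and not normalised between plates; calls rest on per-plate z-scores that were not deposited.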 The record does not give: the amount of reagent, the time to read-out.

gene	DRSC id	Kc cell number, rep 1	Kc cell number, rep 2	S2R+ cell number, rep 1	S2R+ cell number, rep 2	Outcome
CG14856	DRSC14980	1.28e6	1.36e6	1.08e6	1.17e6	inactive
net	DRSC00309	1.63e6	1.68e6	1.14e6	1.23e6	inactive
Jon74E (Jonah 74E)	DRSC10617	1.42e6	1.48e6	1.16e6	1.29e6	inactive
CG14963	DRSC08422	1.41e6	1.42e6	1.01e6	1.16e6	inactive
Sr-CII (Scavenger receptor class C, type II)	DRSC07557	1.49e6	1.60e6	1.16e6	1.31e6	inactive
scramb1 (scramblase 1)	DRSC09724	1.47e6	1.49e6	1.42e6	1.51e6	inactive
scramb1 (scramblase 1)	DRSC10667	1.26e6	1.26e6	1.38e6	1.43e6	inactive
scramb1 (scramblase 1)	DRSC10668	1.39e6	1.53e6	1.42e6	1.50e6	inactive
Ravus	DRSC15126	1.40e6	1.38e6	1.07e6	1.20e6	inactive
Nedd8 (Nedd8 ubiquitin like modifier)	DRSC02092	1.51e6	1.59e6	8.26e5	2.41e5	inactive
Hsp60B (Heat shock protein 60B)	DRSC00542	1.37e6	1.40e6	9.32e5	1.03e6	inactive
CG30076	DRSC05494	1.53e6	1.58e6	1.08e6	1.24e6	inactive
CG32066	DRSC10652	1.30e6	1.36e6	1.30e6	1.14e6	inactive
CG32066	DRSC10653	1.39e6	1.44e6	1.18e6	1.27e6	inactive
Cht12 (Chitinase 12)	DRSC03844	5.00e5		8.81e5		inactive

2 consecutive reagents from above, for reference:
gene	DRSC id	Kc cell number, rep 1	Kc cell number, rep 2	S2R+ cell number, rep 1	S2R+ cell number, rep 2	Outcome
Jon74E (Jonah 74E)	DRSC10617	1.42e6	1.48e6	1.16e6	1.29e6	inactive
CG14963	DRSC08422	1.41e6	1.42e6	1.01e6	1.16e6	inactive

More reagents:
gene	DRSC id	Kc cell number, rep 1	Kc cell number, rep 2	S2R+ cell number, rep 1	S2R+ cell number, rep 2	Outcome
CG10257	DRSC05985	1.46e6	1.53e6	1.19e6	1.29e6	inactive
CG32073	DRSC09087	1.64e6	1.67e6	1.19e6	1.36e6	inactive
CG32073	DRSC09894	1.36e6	1.35e6	1.18e6	1.30e6	inactive
CG1690	DRSC06636	1.89e6	2.03e6	1.36e6	1.54e6	inactive
CG13310	DRSC09981	1.50e6	1.69e6	1.24e6	1.29e6	inactive
CG10208	DRSC14211	1.66e6	1.83e6	1.04e6	1.12e6	inactive
CG32106	DRSC09219	1.41e6	1.42e6	1.11e6	1.24e6	inactive
Sh3beta	DRSC11001	1.49e6	1.67e6	1.24e6	1.04e6	inactive
Cyt-c1L (Cytochrome c1-like)	DRSC14860	1.55e6	1.56e6	9.88e5	1.09e6	inactive
